Data published in the supplement of paper PMC9015667.
Where a name gives a salt, the structure may show the parent alone. This is one part of the list. Repeats are few or missing, and single values can be far off.

Tests used:
Assay in all cases: reduction in cell viability relative to untreated/vehicle; higher = more growth inhibition
Details in all cases: 200 nM; 72 h
M229P = test system: M229P (parental melanoma line)
M229R = test system: M229R (matched melanoma line resistant to BRAF inhibitors)
M238P = test system: M238P (parental melanoma line)
M238R = test system: M238R (matched melanoma line resistant to BRAF inhibitors)
M249P = test system: M249P (parental melanoma line)
M249R = test system: M249R (matched melanoma line resistant to BRAF inhibitors)
UACC62P = test system: UACC62P (parental melanoma line)
UACC62R = test system: UACC62R (matched melanoma line resistant to BRAF inhibitors)

Row | Structure (SMILES) | reduction in cell viability (M229P) | reduction in cell viability (M229R) | reduction in cell viability (M238P) | reduction in cell viability (M238R) | reduction in cell viability (M249P) | reduction in cell viability (M249R) | reduction in cell viability (UACC62P) | reduction in cell viability (UACC62R)
1 | N=C(NCCCCCCNC(=N)NC(=N)Nc1ccc(Cl)cc1)NC(=N)Nc1ccc(Cl)cc1 [Chlorhexidine] | < 0% | 6.59% | < 0% | < 0% | < 0% | < 0% | < 0% | < 0%
2 | COc1ccc(Nc2nccc(NCCO)n2)cc1 [Cardiogenol] | < 0% | < 0% | < 0% | < 0% | < 0% | < 0% | < 0% | < 0%
3 | Cc1cnc(NC(=O)C2=C(O)c3ccccc3S(=O)(=O)N2C)s1 [Meloxicam] | < 0% | < 0% | < 0% | < 0% | < 0% | < 0% | < 0% | < 0%
4 | CCN1CCC[C@H]1CNC(=O)c1cc(S(N)(=O)=O)ccc1OC [Levosulpiride] | < 0% | < 0% | < 0% | < 0% | < 0% | < 0% | < 0% | < 0%
5 | O=C(NC1CCOCC1)c1ccc(-c2cc(-c3c[nH]nc3-c3ccccn3)ccn2)cc1 | < 0% | < 0% | < 0% | < 0% | < 0% | < 0% | < 0% | < 0%
6 | O=C(O)[C@H](CC(=O)N1C[C@H]2CCCC[C@H]2C1)Cc1ccccc1 [Mitiglinide calcium hydrate] | < 0% | < 0% | < 0% | < 0% | < 0% | < 0% | < 0% | < 0%
7 | CCN(CC)CCOc1ccc(Cc2ccccc2)cc1 [Tesmilifene hydrochloride] | < 0% | < 0% | < 0% | < 0% | < 0% | < 0% | < 0% | < 0%
8 | CCOC(CN1C(=O)[C@](CC(=O)Nc2ccc(C)cc2)(NC(=O)Nc2ccc(C)cc2)c2ccccc21)OCC | < 0% | < 0% | < 0% | < 0% | < 0% | < 0% | < 0% | < 0%
9 | CCCCCCCCCC(=O)N[C@H]1[C@H](Oc2c3cc4cc2Oc2ccc(cc2Cl)[C@@H](O[C@@H]2O[C@H](CO)[C@@H](O)[C@H](O)[C@H]2NC(C)=O)[C@@H]2NC(=O)[C@H](NC(=O)[C@@H]4NC(=O)[C@H]4NC(=O)[C@@H](Cc5ccc(c(Cl)c5)O3)NC(=O)[C@H](N)c3ccc(O)c(c3)Oc3cc(O)cc4c3)c3ccc(O)c(c3)-c3c(OC4O[C@H](CO)[C@@H](O)[C@H](O)[C@@H]4O)cc(O)cc3[C@@H](C(=O)O)NC2=O)O[C@H](CO)[C@@H](O)[C@@H]1O (stereo partly specified) [Teicoplanin] | < 0% | < 0% | < 0% | < 0% | < 0% | < 0% | < 0% | < 0%
10 | O=C(NCCS(=O)(=O)c1ccc(C(F)(F)F)cn1)c1ccc(Cl)cc1 | < 0% | < 0% | < 0% | < 0% | < 0% | < 0% | < 0% | < 0%
11 | CC=CC(=O)N(CC)c1ccccc1C [Crotamiton] | < 0% | 18.6% | < 0% | < 0% | < 0% | 1.25% | < 0% | < 0%
12 | CCOC(=O)N1CCN(/[N+]([O-])=N/Oc2cc(O/N=[N+](\[O-])N3CCN(C(=O)OCC)CC3)c([N+](=O)[O-])cc2[N+](=O)[O-])CC1 [Double JS-K] | < 0% | < 0% | < 0% | < 0% | < 0% | < 0% | < 0% | < 0%
13 | Cc1ccn(-c2ccc(-c3ncco3)cc2)c(=O)c1-c1ccc2nc(N)ncc2c1 | < 0% | < 0% | < 0% | < 0% | < 0% | < 0% | < 0% | < 0%
14 | CC(C)(O)c1cc2nc(-c3cnc(N)nc3)nc(N3CCOCC3)c2s1 | < 0% | 14.6% | 11.6% | 17.1% | < 0% | 2.52% | < 0% | 16.1%
15 | Cn1cnc2c(F)c(Nc3ccc(Br)cc3Cl)c(C(=O)NOCCO)cc21 [Selumetinib] | 10.4% | < 0% | 32.1% | < 0% | 46.9% | < 0% | 43.3% | 19.6%
16 | Cc1nc(Nc2n[nH]c3c2CN(C(=O)N[C@H](CN(C)C)c2ccccc2)C3(C)C)c2sccc2n1 | 48.5% | 25% | 49.2% | 49.1% | 22.7% | 55% | 55.9% | 73.3%
17 | COc1ccc2[nH]cc(CCNC(C)=O)c2c1 [Melatonin] | < 0% | < 0% | < 0% | < 0% | < 0% | < 0% | < 0% | < 0%
18 | COc1ccc([C@]2(C#N)CC[C@@H](C(=O)O)CC2)cc1OC1CCCC1 [Cilomilast] | < 0% | < 0% | < 0% | < 0% | < 0% | < 0% | < 0% | < 0%
19 | CN(C)/N=N/c1[nH]cnc1C(N)=O [Dacarbazine] | < 0% | < 0% | < 0% | < 0% | < 0% | 0.95% | < 0% | < 0%
20 | C[C@]12CCC(=O)C=C1CC[C@@H]1[C@@H]2[C@@H](O)C[C@@]2(C)[C@H]1CC[C@]2(O)C(=O)CO [Hydrocortisone] | < 0% | < 0% | < 0% | < 0% | < 0% | < 0% | < 0% | < 0%
21 | CS(=O)(=O)c1ccc(-c2cnc(N)c(C(=O)Nc3ccccc3)n2)cc1 | < 0% | < 0% | < 0% | < 0% | < 0% | < 0% | < 0% | < 0%

Row | Structure (SMILES) | reduction in cell viability (M229P) | reduction in cell viability (M229R) | reduction in cell viability (M238P) | reduction in cell viability (M238R) | reduction in cell viability (M249P) | reduction in cell viability (M249R) | reduction in cell viability (UACC62P) | reduction in cell viability (UACC62R)
22 | C[C@]1(CO)CN(c2cc(C(=O)Nc3ccc4c(c3)-c3c(c(C(N)=O)nn3-c3ccc(F)cc3)CC4)c(Cl)cn2)C[C@@]1(C)CO | < 0% | < 0% | < 0% | < 0% | < 0% | < 0% | < 0% | < 0%
23 | CN(C)c1cc(NC(=O)CNC(C)(C)C)c(O)c2c1C[C@H]1C[C@H]3[C@H](N(C)C)C(O)=C(C(N)=O)C(=O)[C@@]3(O)C(O)=C1C2=O [Tigecycline] | < 0% | < 0% | < 0% | < 0% | < 0% | < 0% | < 0% | < 0%
24 | O=C(NNC(=O)c1ccc(CNS(=O)(=O)c2ccc(F)c(Cl)c2)cc1)c1ccccc1 | < 0% | < 0% | < 0% | < 0% | < 0% | < 0% | 2.71% | < 0%
25 | CO[C@H]1C(=O)[C@]2(C)[C@@H](OC)C[C@H]3OC[C@@]3(OC(C)=O)[C@H]2[C@H](OC(=O)c2ccccc2)[C@]2(O)C[C@H](OC(=O)[C@H](O)[C@@H](NC(=O)OC(C)(C)C)c3ccccc3)C(C)=C1C2(C)C [Cabazitaxel] | 26.5% | 41.3% | 75.7% | 72.9% | 27.4% | 39% | 26.5% | 75.1%
26 | O=c1c(O)c(-c2ccc(O)c(O)c2)oc2cc(O)cc(O)c12 [Quercetine] | < 0% | < 0% | < 0% | < 0% | < 0% | < 0% | < 0% | < 0%
27 | O=C(O)C(Cc1c[nH]c2ccccc12)N1C(=O)c2ccccc2C1=O (stereo unspecified) | < 0% | < 0% | < 0% | < 0% | < 0% | < 0% | 18.7% | 7.88%
28 | C=CC[C@@H]1/C=C(\C)C[C@H](C)C[C@H](OC)[C@H]2O[C@@](O)(C(=O)C(=O)N3CCCC[C@H]3C(=O)O[C@H](/C(C)=C/[C@@H]3CC[C@@H](O)[C@H](OC)C3)[C@H](C)[C@@H](O)CC1=O)[C@H](C)C[C@@H]2OC | < 0% | < 0% | < 0% | 0.84% | < 0% | < 0% | < 0% | < 0%
29 | Oc1ccc([C@@H]2Oc3ccc(O)cc3[C@@H]3CCC[C@@H]32)cc1 [Erteberel] | < 0% | 1.88% | < 0% | < 0% | < 0% | 10% | < 0% | < 0%
30 | Cc1nc(N)sc1-c1ccnc(Nc2ccc(N3CCOCC3)cc2)n1 | < 0% | < 0% | < 0% | < 0% | < 0% | < 0% | < 0% | 7.38%
31 | Cc1ccc2nc(NCCN)c3ncc(C)n3c2c1 | < 0% | < 0% | 0.02% | < 0% | < 0% | < 0% | 0.1% | < 0%
32 | C[C@@H](NCc1cc2ccccc2[nH]1)c1cccc2ccccc12 [Calindol] | < 0% | < 0% | < 0% | < 0% | < 0% | < 0% | < 0% | < 0%
33 | CC(=O)OCC(=O)[C@@]1(O)CC[C@H]2[C@@H]3CCC4=CC(=O)CC[C@]4(C)[C@H]3C(=O)C[C@@]21C [Cortisone acetate] | < 0% | < 0% | < 0% | < 0% | < 0% | 17.1% | < 0% | < 0%
34 | Oc1ccc(C2=Cc3ccc(O)cc3OC2)cc1 [Idronoxil] | < 0% | < 0% | < 0% | < 0% | < 0% | 2.11% | 7.15% | < 0%
35 | O=C(O)CCNC(=O)c1ccc(/N=N/c2ccc(O)c(C(=O)O)c2)cc1 [Balsalazide] | < 0% | < 0% | < 0% | < 0% | < 0% | < 0% | 2.21% | < 0%
36 | COC[C@@H](c1ccc(C(F)(F)F)cc1)N1CCN(C2(C)CCN(C(=O)c3c(C)ncnc3C)CC2)C[C@@H]1C [Vicriviroc maleate] | < 0% | < 0% | < 0% | < 0% | < 0% | < 0% | < 0% | < 0%
37 | CN(C)Cc1cccc(N/C(=C2\C(=O)Nc3cc(C(N)=O)ccc32)c2ccccc2)c1 | < 0% | < 0% | < 0% | < 0% | < 0% | < 0% | < 0% | < 0%
38 | C=CC(=O)Nc1cccc(Sc2nc(Nc3ccc(N4CCN(C)CC4)cc3)ncc2Cl)c1 | < 0% | < 0% | < 0% | < 0% | < 0% | < 0% | < 0% | < 0%
39 | CN(C)S(=O)(=O)c1ccc2c(c1)/C(=C/c1cc3c([nH]1)CCCC3)C(=O)N2 | < 0% | < 0% | < 0% | < 0% | < 0% | < 0% | < 0% | < 0%
40 | NC(=O)c1ccc2[nH]ccc2c1 | < 0% | < 0% | < 0% | < 0% | < 0% | < 0% | < 0% | < 0%
41 | CCN(CC)CCNC(=O)c1c(C)[nH]c(/C=C2\C(=O)Nc3ccc(F)cc32)c1C [Sunitinib malate] | < 0% | < 0% | < 0% | < 0% | < 0% | < 0% | 10.2% | < 0%
42 | CN1CCN(c2cccc(Nc3nc4c(-c5ccc(S(C)(=O)=O)cc5)cccn4n3)c2)CC1 | < 0% | < 0% | < 0% | < 0% | < 0% | < 0% | 2.38% | 2.39%

Sorted by SMILES length (descending): part of the list above
Row | Structure (SMILES) | reduction in cell viability (M229P) | reduction in cell viability (M229R) | reduction in cell viability (M238P) | reduction in cell viability (M238R) | reduction in cell viability (M249P) | reduction in cell viability (M249R) | reduction in cell viability (UACC62P) | reduction in cell viability (UACC62R)
36 | COC[C@@H](c1ccc(C(F)(F)F)cc1)N1CCN(C2(C)CCN(C(=O)c3c(C)ncnc3C)CC2)C[C@@H]1C [Vicriviroc maleate] | < 0% | < 0% | < 0% | < 0% | < 0% | < 0% | < 0% | < 0%
26 | O=c1c(O)c(-c2ccc(O)c(O)c2)oc2cc(O)cc(O)c12 [Quercetine] | < 0% | < 0% | < 0% | < 0% | < 0% | < 0% | < 0% | < 0%
30 | Cc1nc(N)sc1-c1ccnc(Nc2ccc(N3CCOCC3)cc2)n1 | < 0% | < 0% | < 0% | < 0% | < 0% | < 0% | < 0% | 7.38%
